# Laboratory results reported in the supplement of paper PMC9135407.
# Counter-ions that a name gives are not always drawn. ± gives the standard deviation of the averaged measurements. This is one part of the list. Part of the spread comes from offsets between plates or batches.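 Assay uses culture-activated primary human stellate myofibroblasts; lipid droplet recovery indicates inactivation. Measured: proportion of Hoechst-counted cells over a plate-specific Bodipy cutoff, duplicate wells, DMSO and nortriptyline as per-plate negative and positive controls. A hit scores, control-normalized, above the plate's top-tenth-percentile nortriptyline wells or ranks among its three best wells. Final well concentrations not reported.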
# Tested on: primary human hepatic stellate cells (donor 1)
# Experiment: percent Bodipy-positive cells; higher = more lipid droplet accumulation
# Details: 48 h
# [1] = library stock concentration: 10 mM
# [2] = library stock concentration: 3.33 mM
# [3] = library stock concentration: 1 mM
smiles,measurement,setting,value
COc1cc(/C=C(\C#N)C(N)=O)cc(CSc2nc3ccccc3s2)c1O,percent Bodipy-positive cells,[1],6.52 ± 1.1%
CCOCC(O)COc1ccc(NC(=O)CC[S+](C)C)cc1 (configuration not stated) [Suplatast tosylate],percent Bodipy-positive cells,[1],8.17 ± 1.7%
CCOCC(O)COc1ccc(NC(=O)CC[S+](C)C)cc1 (configuration not stated) [Suplatast Tosylate],percent Bodipy-positive cells,[2],8.4 ± 2.4%
same,percent Bodipy-positive cells,[1],16.6 ± 11%
O=C(NCCCNc1nc(Nc2cccc(CN3CCOCC3)c2)ncc1C1CC1)C1CCC1,percent Bodipy-positive cells,library stock concentration: 80 uM,6.63 ± 1.7%
same,percent Bodipy-positive cells,library stock concentration: 400 uM,17.6 ± 6.5%
same,percent Bodipy-positive cells,library stock concentration: 2 mM,16 ± 1.8%
same,percent Bodipy-positive cells,[1],45 ± 1%
CC(=O)Nc1ncc([N+](=O)[O-])s1,percent Bodipy-positive cells,[1],21.3 ± 3.3%
CC(=O)Nc1ncc([N+](=O)[O-])s1 [Nithiamide],percent Bodipy-positive cells,[2],10.6 ± 0.73%
same,percent Bodipy-positive cells,[1],24.9 ± 10%
O=C(NOCC1CC1)c1cc(Br)c(F)c(F)c1Nc1ccc(I)cc1Cl,percent Bodipy-positive cells,[1],15.7 ± 5.8%
CCCCCCCCCCCCCCCC(=O)O[C@@H]1[C@@H](O)[C@@H](O)[C@@H]([C@H](NC(=O)[C@@H]2C[C@@H](CCC)CN2C)[C@H](C)Cl)O[C@@H]1SC [Clindamycin palmitate hydrochloride],percent Bodipy-positive cells,library stock concentration: 2.9 mM,13.3 ± 9%
CCCCCCCCCCCCCCCC(=O)O[C@@H]1[C@@H](O)[C@@H](O)[C@@H]([C@H](NC(=O)[C@@H]2C[C@@H](CCC)CN2C)[C@H](C)Cl)O[C@@H]1SC [Clindamycin palmitate HCl],percent Bodipy-positive cells,[2],8.23 ± 2.6%
same,percent Bodipy-positive cells,[1],15.8 ± 6.5%
CCCCCCCCCCCCCCCC(=O)O[C@@H]1[C@@H](O)[C@@H](O)[C@@H]([C@H](NC(=O)[C@@H]2C[C@@H](CCC)CN2C)[C@H](C)Cl)O[C@@H]1SC [Clindamycin palmitate],percent Bodipy-positive cells,library stock concentration: 4.7 mM,12.3 ± 1.6%
Cc1cc(CC(=O)O)n(C)c1C(=O)c1ccc(Cl)cc1 [Zomepirac sodium],percent Bodipy-positive cells,library stock concentration: 6.9 mM,13.8 ± 1.9%
same,percent Bodipy-positive cells,[1],14.7 ± 2.1%
Cc1cc(CC(=O)O)n(C)c1C(=O)c1ccc(Cl)cc1 [Zomepirac sodium salt],percent Bodipy-positive cells,,8.483 ± 0.019%
COc1cc2nccc(Oc3ccc(NC(=O)Nc4ccc(F)cc4F)c(F)c3)c2cc1OC,percent Bodipy-positive cells,[1],92.32 ± 0.75%
COc1ccc2cc(C(C)C(=O)O)ccc2c1 (stereo not drawn) [Naproxen(+)],percent Bodipy-positive cells,library stock concentration: 8.7 mM,1.38 ± 0.81%
same,percent Bodipy-positive cells,[1],9.6655 ± 0.0064%
Nc1ncnc2c1c(I)cn2[C@@H]1O[C@H](CO)[C@@H](O)[C@H]1O [5-Iodotubercidin],percent Bodipy-positive cells,[2],39.1 ± 3.1%
Nc1ncnc2c1nc(Sc1ccc(Cl)cc1)n2C1OC2COP(=O)(O)O[C@@H]2[C@@H]1O (some centres not stated) [8-(4-Chlorophenylthio)-cAMP sodium],percent Bodipy-positive cells,[1],42.9 ± 6.8%
CC(C)=CCC/C(C)=C/CC/C(C)=C/CSCC(=O)O [S-Farnesyl Thioacetic Acid],percent Bodipy-positive cells,[3],11.4 ± 1.5%
CC(C)=CCC/C(C)=C/CC/C(C)=C/CSCC(=O)O [Farnesylthioacetic acid],percent Bodipy-positive cells,[3],11.5 ± 9.3%
CC(C)c1ccc(C(=O)c2cccs2)c(SCCCCCCCCN(C)C)n1.O=C(O)C(=O)O,percent Bodipy-positive cells,[1],95.8 ± 3.7%

# Part of the list above, with bars between the fields.
smiles | measurement | setting | value
CCOCC(O)COc1ccc(NC(=O)CC[S+](C)C)cc1 (configuration not stated) [Suplatast Tosylate] | percent Bodipy-positive cells | [1] | 16.6 ± 11%
O=C(NCCCNc1nc(Nc2cccc(CN3CCOCC3)c2)ncc1C1CC1)C1CCC1 | percent Bodipy-positive cells | library stock concentration: 400 uM | 17.6 ± 6.5%
